Test results taken from PubChem BioAssay AID540276 (National Center for Advancing Translational Sciences (NCATS), 2011).
In all, about 300,000 compounds went through this assay and about 5,400 (1.8%) were called active. Inconclusive means that the source gave no clear call. Such entries were picked first, then a sample of the others. The call rests on the fitted dose curve; tested in HEK293 cells. A potency beside an inconclusive call is a rough fit, not a confirmed value.

Assay: qHTS for inhibitors of binding or entry into cells for Marburg Virus
Conditions: Marburg virus pseudotyped entry inhibition, cell reporter; series mostly up to 37.8 µM
Potency means the concentration at half of the fitted maximal effect.

Question: With `CC1CN(CCC(=O)Nc2ccc3c(c2)CCC3)CC(C)O1` (stereo not given) as the compound, how does the Potency read?
Answer: inactive

Question: With `COc1cc(N2Cc3ccccc3C2)ccc1C=O` as the compound, how does the Potency read?
Answer: active: 7.94 µM

Question: Which Potency does the source give for `Cc1ccc(OCC(=O)Nc2nc(-c3ccc(Br)cc3)ns2)cc1` here?
Answer: inactive

Question: With `Cc1ccc(C(=O)Nc2ccc(-n3ccnc3P(=O)(O)c3ccccc3)cc2)cc1` as the compound, how does the Potency read?
Answer: inconclusive: 3.55 µM [inhibitor, single point]

Question: For `COc1c(C)cc(Br)cc1C(=O)NCc1cccnc1`, which Potency is on record?
Answer: inconclusive: 4.61 µM [activator, full curve, poor fit]

Question: Which Potency does the source give for `CCN(C(=O)CCc1nc(-c2ccccc2F)no1)c1cc(OC)ccc1OC` here?
Answer: inconclusive: 7.94 µM [inhibitor, partial curve, poor fit]

Question: With `Cc1c(NC(=O)C2(c3ccccc3)CCOCC2)c(=O)n(-c2ccccc2)n1C` as the compound, how does the Potency read?
Answer: inactive

Question: With `O=C1CC(c2ccc(F)cc2)CC2=C1C=Nc1ccccc1N2` (stereo not given) as the compound, how does the Potency read?
Answer: inconclusive: 35.5 µM [inhibitor, single point]

Question: With `O=C(Nc1ccc([N+](=O)[O-])cc1)c1ccccc1` as the compound, how does the Potency read?
Answer: inconclusive: 3.16 µM [activator, partial curve, poor fit]

Question: For `COC(=O)c1nn(-c2ccccc2)ccc1=O`, which Potency is on record?
Answer: inconclusive: 2.24 µM [activator, full curve, poor fit]

Question: For `CCOC(=O)N1CCN(C(=O)c2cc(COc3ccc(F)cc3F)on2)CC1`, which Potency is on record?
Answer: inconclusive: 7.94 µM [activator, partial curve, poor fit]

Question: Which Potency does the source give for `Nc1nc(CSc2nc3ccccc3s2)nc(Nc2ccccc2)n1` here?
Answer: inactive

Question: For `COc1ccccc1C(=O)NCC(=O)n1nc(C)cc1C`, which Potency is on record?
Answer: inconclusive: 1 µM [activator, full curve, poor fit]

Question: With `C/C(=N\NC(=O)c1ccccc1)c1ccc2c(c1)OCO2` as the compound, how does the Potency read?
Answer: inactive

Question: For `COc1ccc(NC(=O)COc2ccccc2Cl)cc1S(=O)(=O)N1CCCCC1`, which Potency is on record?
Answer: inconclusive: 11.2 µM [inhibitor, single point]

Question: For `O=C(NCCCCc1ccccc1)c1ccc(F)cc1`, which Potency is on record?
Answer: inconclusive: 35.5 µM [inhibitor, single point]

Question: Which Potency does the source give for `O=C(Nc1ccc(F)cc1)Nc1csc2ccccc12` here?
Answer: inconclusive: 10 µM [inhibitor, partial curve, poor fit]

Question: With `Cc1noc(C(=O)Nc2cc(Cl)ccc2O)c1Cl` as the compound, how does the Potency read?
Answer: inconclusive: 25.1 µM [inhibitor, single point]

Question: For `CC(=O)Nc1ccc(NC(=O)C(C)OC(=O)CNC(=O)c2ccc(-c3ccccc3)cc2)cc1` (stereo not given), which Potency is on record?
Answer: inactive

Question: Which Potency does the source give for `Cc1ccc(CNCCc2ccccc2F)cc1` here?
Answer: inconclusive: 3.55 µM [activator, single point]

Question: With `COCCN(C(=O)c1ccc(C)c(S(=O)(=O)N2CCOCC2)c1)c1c(N)n(CC(C)C)c(=O)[nH]c1=O` as the compound, how does the Potency read?
Answer: inconclusive: 0.708 µM [activator, full curve, poor fit]

Question: With `CCOC(=O)c1c(C)[nH]c(C(=O)NCCc2ccc(OC)c(OC)c2)c1C` as the compound, how does the Potency read?
Answer: inconclusive: 35.5 µM [inhibitor, single point]

Question: With `CC(=O)N(C)C1=C(O)c2ccccc2C(=O)C1=O` as the compound, how does the Potency read?
Answer: inactive

Question: For `Cc1ccc(SC2=C(Sc3ccc(C)cc3)C(=O)c3ccccc3C2=O)cc1`, which Potency is on record?
Answer: inactive

Question: Which Potency does the source give for `O=C(CN(C1CC1)S(=O)(=O)c1ccc(S(=O)(=O)NC2CCCCC2)cc1)Nc1ccccc1` here?
Answer: inconclusive: 35.5 µM [inhibitor, partial curve, poor fit]

Question: Which Potency does the source give for `Cc1ccc(-c2nnn3c2nc(NCc2ccc4c(c2)OCO4)c2ccccc23)cc1` here?
Answer: inactive

Question: For `COc1ccccc1NC(=O)C1CCCN1C(=O)NCc1ccccc1` (stereo not given), which Potency is on record?
Answer: inconclusive: 0.411 µM [inhibitor, partial curve, poor fit]

Question: Which Potency does the source give for `CCN(CC)CC(=O)Nc1sc2c(c1C(=O)c1ccccc1OC)CCC2` here?
Answer: inconclusive: 10 µM [inhibitor, partial curve, poor fit]

Question: For `Cc1noc(C)c1S(=O)(=O)N1CCC(C(=O)NCCN2CCC(C)CC2)CC1`, which Potency is on record?
Answer: inactive

Question: With `COc1ccccc1N1CCN(C(=O)c2ccc3c(c2)CCN3S(=O)(=O)c2ccccc2)CC1` as the compound, how does the Potency read?
Answer: inconclusive: 35.5 µM [inhibitor, single point]

Question: Which Potency does the source give for `COc1ccc(C2CC(=O)C(C3NCCc4ccccc43)=C(O)C2n2cncn2)cc1` (stereo not given) here?
Answer: inconclusive: 35.5 µM [activator, single point]

Question: With `O=C(Cn1cnc2ccccc2c1=O)Nc1ccc2c(c1)OCO2` as the compound, how does the Potency read?
Answer: inconclusive: 0.316 µM [activator, full curve, poor fit]

Question: For `CCOc1ccc(S(=O)(=O)N2CCN(c3ccccc3F)CC2)c2cccnc12`, which Potency is on record?
Answer: inconclusive: 18.4 µM [inhibitor, single point]

Question: For `COCCN(CCOC)Cc1cc(=O)oc2cc(C)c(C)cc12`, which Potency is on record?
Answer: inconclusive: 12.5 µM [inhibitor, single point]

Question: With `O=C(O)CC1CCCC(c2ccccc2)C1=O` (stereo not given) as the compound, how does the Potency read?
Answer: inconclusive: 4.11 µM [activator, full curve, poor fit]

Question: Which Potency does the source give for `O=C(NCc1ccco1)Nc1cccc2ccccc12` here?
Answer: inactive

Question: For `Cc1ccc(-c2nnn(CC(=O)N3c4ccccc4CCc4ccccc43)n2)cc1`, which Potency is on record?
Answer: inconclusive: 10.3 µM [inhibitor, partial curve, poor fit]

Question: Which Potency does the source give for `CN1/C(=C\C(=O)Nc2ccc(Br)cc2)C(C)(C)c2ccccc21` here?
Answer: inactive

Question: Which Potency does the source give for `Cc1ccc2nc(-c3c[nH]c4ccccc34)c(Nc3ccc(F)cc3)n2c1` here?
Answer: inconclusive: 2.82 µM [activator, single point]

Question: Which Potency does the source give for `Cc1cccc(C(=O)Nc2ccc(C(=O)/C=C/c3cccnc3)cc2)c1` here?
Answer: inconclusive: 14.1 µM [inhibitor, single point]

Question: For `COCC(=O)NCc1ccc2c(c1)cc(C)n2C`, which Potency is on record?
Answer: inconclusive: 17.8 µM [activator, single point]

Question: Which Potency does the source give for `COCc1[nH]nc2c1[C@@H](c1ccc(OC)cc1)C(C#N)=C(N)O2` here?
Answer: inactive

Question: Which Potency does the source give for `Cc1ccc(C)c(NC(=O)CN(C)C(=O)c2cc([N+](=O)[O-])ccc2N2CCOCC2)c1` here?
Answer: inconclusive: 31.6 µM [activator, single point]

Question: Which Potency does the source give for `COC(=O)C(Cc1ccccc1)NC(=O)CNC(=O)c1ccc(Br)cc1` (stereo not given) here?
Answer: inactive

Question: For `COc1ccc(N2CCN(S(=O)(=O)c3ccc(OC)c(C(=O)N4CCCCC4)c3)CC2)cc1`, which Potency is on record?
Answer: inconclusive: 22.4 µM [inhibitor, single point]
